Reference: patent US5064430A, “Polynonapeptide bioelastomers having an increased elastic modulus” (UAB Research Foundation, priority 1989, dated 1991)
Part of at least one peptide drawing is inferred or uncertain, most often the ends. Ends that are not written are not given here.

Tested on: fibroblasts
Assay: Checkerboard assay of Zigmond and Hirsch (chemotaxis) with fibroblasts
Format: cell-based
Conditions: n = 15
From the text: The chemotaxis of the present polynonapeptide towards fibroblasts and endothelial cells can be determined and verified by the well known checkerboard assay of Zigmond and Hirsch. […] Checkerboard analysis of AGVPGFGVG and GFGVGAGVP sequences with fibroblasts using the procedure as described above afforded the following results which are represented graphically in Tables I and II.

[1] = peptide below filters 0 M, above filters 10^-8 M
[2] = peptide below filters 0 M, above filters 10^-9 M
[3] = peptide below filters 0 M, above filters 10^-10 M
[4] = peptide below filters 10^-8 M, above filters 0 M
[5] = peptide below filters 10^-8 M, above filters 10^-8 M
[6] = peptide below filters 10^-8 M, above filters 10^-9 M
[7] = peptide below filters 10^-8 M, above filters 10^-10 M
[8] = peptide below filters 10^-9 M, above filters 0 M
[9] = peptide below filters 10^-9 M, above filters 10^-8 M
[10] = peptide below filters 10^-9 M, above filters 10^-9 M
[11] = peptide below filters 10^-9 M, above filters 10^-10 M
[12] = peptide below filters 10^-10 M, above filters 0 M
[13] = peptide below filters 10^-10 M, above filters 10^-8 M
[14] = peptide below filters 10^-10 M, above filters 10^-9 M
[15] = peptide below filters 10^-10 M, above filters 10^-10 M

Sequence | Checkerboard analysis with fibroblasts, mean ± S.E.M. [1] | Checkerboard analysis with fibroblasts, mean ± S.E.M. [2] | Checkerboard analysis with fibroblasts, mean ± S.E.M. [3] | Checkerboard analysis with fibroblasts, mean ± S.E.M. [4] | Checkerboard analysis with fibroblasts, mean ± S.E.M. [5] | Checkerboard analysis with fibroblasts, mean ± S.E.M. [6] | Checkerboard analysis with fibroblasts, mean ± S.E.M. [7] | Checkerboard analysis with fibroblasts, mean ± S.E.M. [8] | Checkerboard analysis with fibroblasts, mean ± S.E.M. [9] | Checkerboard analysis with fibroblasts, mean ± S.E.M. [10] | Checkerboard analysis with fibroblasts, mean ± S.E.M. [11] | Checkerboard analysis with fibroblasts, mean ± S.E.M. [12] | Checkerboard analysis with fibroblasts, mean ± S.E.M. [13] | Checkerboard analysis with fibroblasts, mean ± S.E.M. [14] | Checkerboard analysis with fibroblasts, mean ± S.E.M. [15]
AGVPGFGVG [AGVPGFGVG] | -3 ± 0.9 | -2 ± 0.5 | -2 ± 1.1 | 9 ± 2.3 | -2 ± 1.1 | 5 ± 1.2 | 5 ± 1.6 | 25 ± 1.6 | -2 ± 1.1 | -4 ± 0.6 | 3 ± 1.7 | 6 ± 1.3 | 2 ± 1.8 | -4 ± 0.8 | -3 ± 1.0
GFGVGAGVP [GFGVGAGVP] | -2 ± 1.4 | -3 ± 1.2 | -1 ± 1.0 | 21 ± 1.5 | 0 ± 1.50 | 7 ± 1.5 | 12 ± 1.6 | 45 ± 3.4 | -1 ± 1.1 | -2 ± 1.0 | 7 ± 1.8 | 13 ± 1.6 | -1 ± 0.8 | -3 ± 0.7 | -1 ± 0.8
